Screen size: about 1,200 compounds; about 60 (5%) were called active. Inconclusive results (about 1%) are left out.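 Rule for the calls: active = Decreasing signal and fitted IC50 at most twice the top valid tested dose; inconclusive = Bad fit or a level curve showing 30 to 70% inhibition; inactive = the rest.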 The list shows a part of the results. Entries with a potency or affinity are not part of this list.
target: NAD-dependent protein deacylase sirtuin-5, mitochondrial (Homo sapiens) (UniProt Q9NXA8); assay: sirtuin-5 deacylation blockers, concentration series – biochemical, fluorescence imaging, cherry-pick, set 5, dose response (AID 720591); conditions: Purified SirT5, succinyl-peptide AMC, trypsin-coupled fluorescence; at 15 µM (top of the series) unless noted;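 note: 0% = median of neutral control wells and -100% = median of positive control wells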

Sequences of proteins named here, by UniProt entry; tags and fusion partners are left off. A change or cut given only in a name is not applied to a line headed by its entry.
UniProt Q9NXA8: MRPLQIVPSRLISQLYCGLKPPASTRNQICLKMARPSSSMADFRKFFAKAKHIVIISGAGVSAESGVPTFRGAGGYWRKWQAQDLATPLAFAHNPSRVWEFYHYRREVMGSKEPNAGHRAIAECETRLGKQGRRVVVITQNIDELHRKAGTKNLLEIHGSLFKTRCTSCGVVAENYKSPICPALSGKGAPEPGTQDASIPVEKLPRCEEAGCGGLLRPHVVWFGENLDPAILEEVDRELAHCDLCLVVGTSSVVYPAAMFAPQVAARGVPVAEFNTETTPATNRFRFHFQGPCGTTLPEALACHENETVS

Activity change, negative = inhibition, inactive:
COc1ccc(NC(=O)CN(C)CC(=O)Nc2ccc3c(c2)CCC3)cc1 -0.493%
C[C@H]1CN([C@@H](C)CO)C(=O)CCCn2nncc2CO[C@@H]1CN(C)C(=O)c1ccc2ccn(C)c2c1 -29.7%
COc1ccc(C(C)(C)C)cc1S(=O)(=O)n1ccnc1C -7.4%
COc1cc(C2C(C#N)=C(N)Oc3c2ccc2ccccc32)ccc1OCC(=O)Nc1ccc(C)cc1 (centres undefined) -23.9%
Cc1ccccc1NS(=O)(=O)c1ccc(C(=O)NCC2CCCO2)cc1 (centres undefined) -30.8%
COC(=O)c1c(NC(C)=O)sc2c1CCN(Cc1ccccc1)C2 -6.96%
CN(C(=O)c1cccc(NC(=O)Cc2ccc(NC(=O)C3CCN(C(=O)C4CCC4)CC3)cc2)c1)C1CC1 2.18%
CCN(CC)c1nc2c(c(=O)[nH]c(=O)n2C)n1Cc1ccccc1 12.5%
O=C(c1cccs1)c1coc2ccc(O)c(CN3CCOCC3)c12 25.9%
CC(C)C[C@H]1COc2cc(N3CC[C@H](O)C3)ccc2S(=O)(=O)N1 0.308%
CN(C)CCCCCN(C)Cc1cc2ccccc2o1 -28.2%
COc1ccc(C(CNC(=O)C(CC(C)C)NS(=O)(=O)c2ccc(C)cc2)N2CCOCC2)cc1 (centres undefined) 19%
CCC(=O)Nc1cccc(-c2cc3ccccc3oc2=O)c1 7.85%
COc1ccc(N2CC(NC(=O)N3CCc4ccccc43)CC2=O)cc1OC (centres undefined) -30%
COc1ccc(CC(=O)Nc2ccc(C(=O)NCC(C)C)cc2)cc1 8.8%
COc1ccc2c(CC(=O)NNC(=O)c3ccc(C)cc3)coc2c1 -14.3%
CS(=O)(=O)N(CC(=O)N1CCN(Cc2ccccc2)CC1)c1cccc(F)c1 -12.3%
COc1ccc(C(=O)NC2CC3CCCC(C2)N3Cc2ccccc2)c(OC)c1 (centres undefined) -22.3%
CCN(c1ccccc1)S(=O)(=O)c1ccc(OC)c(NC(=O)Cc2ccc(F)cc2)c1 11.3%
Cc1ccc(C(=O)C2CCN(CC(=O)Nc3nc(C)cs3)CC2)cc1 -21.3%
CCOc1ccccc1NC(=O)CN1c2cccc3cccc(c23)S1(=O)=O 12.7%
CC(=O)N(c1ccc2oc(=O)sc2c1)S(=O)(=O)c1ccc(C(=O)O)cc1 16.3%
Cc1ccccc1NC(=O)C(NC1CCCCC1)C(C)C (centres undefined) -3.21%
CN(C)c1ccc(C2Nc3ccccc3C(=O)N2NS(C)(=O)=O)cc1 (centres undefined) -14%

As a short view, part of the list above.
Activity change, negative = inhibition, inactive:
CN(C)CCCCCN(C)Cc1cc2ccccc2o1 -28.2%
COc1ccc(C(CNC(=O)C(CC(C)C)NS(=O)(=O)c2ccc(C)cc2)N2CCOCC2)cc1 (centres undefined) 19%

Source: PubChem BioAssay AID720591 (Broad Institute, 2013)
